The source of these data is paper doi:10.1101/2025.07.22.666130.

For at least one entry, the source does not settle the construct or the ends of the probe. At least one verdict rests on a figure or table, not on a statement of the authors.

In this data set the test system is RPA heterotrimer (RPA70:RPA32:RPA14) (human). Kind of data set: pull-down. Conditions: 6 uM each, indirect: ssDNA enhanced RPA retention on GST-RAD52-CTD.

Regarding “GAAGCATTTATCAGGGTTATTGTCTCATGAGCGGATACATATTTGAAT [no. 211 48-mer ssDNA]”, the binding result is on record as “binds”.
